Experimental data: paper PMC12677607, “Identification of a Pair of Linear or Cyclic Naturally Inspired Bifunctional Lipopeptide Antibiotics That Overcome Antimicrobial Resistance” (Advanced Science, 2025)
Converted amounts (≈) assume the structure as drawn.

Tests used:
Escherichia coli DH5α = assay: MIC assay (broth micro-dilution); type: cell-based; settings: Table S11, LB broth, 37 °C, 16 h, n = 2
Method: (§1) All MIC assays were performed two independent times (n = 2) in 96‐well plates using a broth micro‐dilution method. The lowest concentration of that inhibited visible microbial growth was recorded as the MIC value.
(§2) For most of bacterial strains, overnight cultures were diluted 5000‐fold in LB broth. For E. faecium and S. aureus, overnight cultures were diluted 1000‐ and 10000‐fold in LB broth, respectively. 100 µL of diluted cells was mixed with 100 µL of LB broth containing each peptide ranging from 64 to 0.125 µg mL^−1 at 2‐fold serial dilutions.

B. subtilis ATCC 23857 = assay: MIC assay (broth micro-dilution); type: cell-based; settings: Bacillus subtilis, ATCC23857, 16 h, read-out: MIC Bacllussubtilis ATCC 23857
Method: as §1, §2

| Compound | MIC (Escherichia coli DH5α) [µg/mL] | MIC (B. subtilis ATCC 23857) [µg/mL] |
| --- | --- | --- |
| C[C@@H](O)[C@H]1C(=O)N2C(C(=O)O)=C(S[C@@H]3CN[C@H](C(=O)N(C)C)C3)[C@H](C)[C@H]12 [Meropenem, reference compound] | < 0.125 | – |
| CN[C@H](CC(C)C)C(=O)N[C@H]1C(=O)N[C@@H](CC(N)=O)C(=O)N[C@H]2C(=O)N[C@H]3C(=O)N[C@H](C(=O)N[C@H](C(=O)O)c4cc(O)cc(O)c4-c4cc3ccc4O)[C@H](O)c3ccc(c(Cl)c3)Oc3cc2cc(c3O[C@@H]2O[C@H](CO)[C@@H](O)[C@H](O)[C@H]2O[C@H]2C[C@](C)(N)[C@H](O)[C@H](C)O2)Oc2ccc(cc2Cl)[C@H]1O [Vancomycin, reference compound] | – | 0.25 (≈ 0.173 µM) |
